# Several values for one entry are separate records, joined by “and”; a condition that tells them apart may be missing. Equal values may be shown once. In all, about 300,000 compounds went through this assay and about 5,400 (1.8%) were called active. The inconclusive results got no clear call from the source; some entries with a clear call stand among them for comparison. Calls follow the shape of the full dose curve; tested in HEK293 cells. Potencies of inconclusive entries are doubtful fits and often do not repeat.
# Test: qHTS for inhibitors of binding or entry into cells for Marburg Virus
# Conditions: Marburg virus pseudotyped entry inhibition, cell reporter; activity change, negative = inhibition: at 37.8 µM (top of the series) unless noted
# % is scaled to controls: 0 for no effect and ±100 for the full control effect; potency is read from the fitted curve at half-maximal effect.
SMILES,"activity change, negative = inhibition",Potency
CCn1c(CNC(=O)c2ccc(OC)cc2)nnc1SCC(=O)Nc1ccc(OC)cc1,inactive: 2.53% [at 46.1 µM],
Cc1ccc(-c2nc3c(c(SCC(=O)N4CCCCC4)n2)Cc2cc(C)ccc2O3)cc1,inactive: 2.29% [at 46.1 µM],
O=C(CSc1nncn1-c1ccccc1)NC1CCCc2ccccc21 (stereo not drawn),,"inconclusive: 8.91 µM [activator, partial curve]"
CCc1ccc(-c2nc(CSCC(=O)NCc3ccccc3OC)c(C)o2)cc1,inactive: 13.5% [at 46.1 µM],
Cc1ccc(-n2nnnc2-c2cnoc2-c2cccc(F)c2)cc1,inactive: -14.9%,
COc1cc(CNc2ccc(N3CCN(C(C)=O)CC3)cc2)ccc1OCc1ccccc1,,"inconclusive: 15.8 µM [inhibitor, single point]"
Cc1cc(NC(=O)COc2ccccc2)n(-c2ccccc2)n1,,"inconclusive: 0.206 µM [inhibitor, full curve, poor fit]"
O=C(CSc1nnc(C2CC2)n1CC1CCCO1)Nc1cccc(Cl)c1 (stereo not drawn),inactive: 24.7% [at 46.1 µM],
Cc1cc(C)nc(N2CCCC(C(=O)NC3CCCC3)C2)n1 (stereo not drawn),,"inconclusive: 0.0651 µM [inhibitor, full curve, poor fit]"
Cc1ccc(OCC(=O)Nc2ccc(C)c(F)c2)c([N+](=O)[O-])n1,,"inconclusive: 2.82 µM [activator, partial curve, poor fit]"
Cc1ccc(-c2nnn(CCC(=O)NC3CCCC3)n2)cc1,inactive: 20.6%,
CN1C(=O)N(CC(=O)Nc2cccc(S(=O)(=O)N(C)c3ccccc3)c2)C(=O)C12CCCCC2,,"inconclusive: 35.5 µM [inhibitor, single point]"
Cn1nc(C(=O)Nc2cccc(C(F)(F)F)c2)c2ccccc2c1=O,inactive: -17%,
COc1cccc(Nc2ccc([N+](=O)[O-])c3nonc23)c1,,"inconclusive: 1 µM [inhibitor, partial curve, poor fit]"
Nc1nc(NCc2ccccc2)nc(NCc2ccccc2)c1[N+](=O)[O-],,"inconclusive: 16.4 µM [activator, single point]"
O=C1CN(C(=O)c2ccc(Cl)c([N+](=O)[O-])c2)c2ccccc2N1,,"inconclusive: 15.8 µM [inhibitor, partial curve, poor fit]"
CC(C)N=C(NC#N)SCc1ccc(Br)cc1,inactive: -8.54%,
CCOC(=O)c1[nH]c2c(c1-c1ccccc1)C(=O)CC(c1ccc(OCC)cc1)C2 (stereo not drawn),inactive: -13.5%,
CCCn1c(SCC(=O)c2ccc(OC)c(OC)c2)nc2c1c(=O)n(C)c(=O)n2C,inactive: 10.4%,
CC(C)(C)c1ccc(Oc2ccc(N)cc2)cc1,,"inconclusive: 1.26 µM [inhibitor, full curve]"
C/C=C/c1ccc(OCC(=O)Nc2cc(OC)c(OC)c(OC)c2)c(OC)c1,,"inconclusive: 3.98 µM [inhibitor, full curve]"
O=[N+]([O-])c1ccc2nc(-c3ccc(Cl)cc3)[nH]c2c1,,"inconclusive: 25.9 µM [inhibitor, single point]"
CC(=O)c1sc(NC(=O)c2cnc(Cl)c(Cl)c2)nc1C,,"inconclusive: 1.26 µM [activator, partial curve, poor fit]"

# Exported with bars between the fields: entries from further up
SMILES | activity change, negative = inhibition | Potency
O=C(CSc1nncn1-c1ccccc1)NC1CCCc2ccccc21 (stereo not drawn) |  | inconclusive: 8.91 µM [activator, partial curve]
CCc1ccc(-c2nc(CSCC(=O)NCc3ccccc3OC)c(C)o2)cc1 | inactive: 13.5% [at 46.1 µM] | 
Cc1ccc(-n2nnnc2-c2cnoc2-c2cccc(F)c2)cc1 | inactive: -14.9% | 
COc1cc(CNc2ccc(N3CCN(C(C)=O)CC3)cc2)ccc1OCc1ccccc1 |  | inconclusive: 15.8 µM [inhibitor, single point]
Cc1cc(NC(=O)COc2ccccc2)n(-c2ccccc2)n1 |  | inconclusive: 0.206 µM [inhibitor, full curve, poor fit]
O=C(CSc1nnc(C2CC2)n1CC1CCCO1)Nc1cccc(Cl)c1 (stereo not drawn) | inactive: 24.7% [at 46.1 µM] | 
Cc1cc(C)nc(N2CCCC(C(=O)NC3CCCC3)C2)n1 (stereo not drawn) |  | inconclusive: 0.0651 µM [inhibitor, full curve, poor fit]
Cc1ccc(OCC(=O)Nc2ccc(C)c(F)c2)c([N+](=O)[O-])n1 |  | inconclusive: 2.82 µM [activator, partial curve, poor fit]
Cc1ccc(-c2nnn(CCC(=O)NC3CCCC3)n2)cc1 | inactive: 20.6% | 
CN1C(=O)N(CC(=O)Nc2cccc(S(=O)(=O)N(C)c3ccccc3)c2)C(=O)C12CCCCC2 |  | inconclusive: 35.5 µM [inhibitor, single point]
Nc1nc(NCc2ccccc2)nc(NCc2ccccc2)c1[N+](=O)[O-] |  | inconclusive: 16.4 µM [activator, single point]
CC(C)N=C(NC#N)SCc1ccc(Br)cc1 | inactive: -8.54% | 
CCCn1c(SCC(=O)c2ccc(OC)c(OC)c2)nc2c1c(=O)n(C)c(=O)n2C | inactive: 10.4% | 
CC(C)(C)c1ccc(Oc2ccc(N)cc2)cc1 |  | inconclusive: 1.26 µM [inhibitor, full curve]
C/C=C/c1ccc(OCC(=O)Nc2cc(OC)c(OC)c(OC)c2)c(OC)c1 |  | inconclusive: 3.98 µM [inhibitor, full curve]
O=[N+]([O-])c1ccc2nc(-c3ccc(Cl)cc3)[nH]c2c1 |  | inconclusive: 25.9 µM [inhibitor, single point]
CC(=O)c1sc(NC(=O)c2cnc(Cl)c(Cl)c2)nc1C |  | inconclusive: 1.26 µM [activator, partial curve, poor fit]

# Further results

SMILES,"activity change, negative = inhibition",Potency
Nc1nnc(SCc2ccc([N+](=O)[O-])cc2)s1,inactive: 6.47% [at 46.1 µM],
Cc1ccccc1CNC(=O)C(C)n1nc(C)n2c(cc3occc32)c1=O (stereo not drawn),inactive: 3.87% [at 46.1 µM],
Cc1cc(C(=O)Cn2nc(C(=O)O)c3ccccc3c2=O)c(C)n1CC(F)(F)F,,"inconclusive: 35.5 µM [activator, single point]"
COc1ccc(-c2nc3n(n2)C(c2ccc(OC)cc2)C(C(=O)Nc2cccnc2)=C(C)N3)cc1 (stereo not drawn),inactive: -29.7% [at 46.1 µM],
CC(Oc1ccc(Br)cc1)c1nc2c3ccccc3nc(=S)n2[nH]1 (stereo not drawn),,"inconclusive: 14.1 µM [inhibitor, single point]"
CCc1ccccc1NS(=O)(=O)c1ccc2[nH]cc(C(=O)NCC3CCCO3)c(=O)c2c1 (stereo not drawn),,inactive
O=c1c2c3c(sc2nc2sc(CN4CCOCC4)cn12)CCCC3,,inactive
CCOC(=O)c1cnc2c(c(C)nn2C)c1Oc1ccc(Cl)cc1,,"inconclusive: 7.3 µM [inhibitor, partial curve]"
Cc1ccccc1CSc1nnc(-c2ccccn2)n1C,,"inconclusive: 8.91 µM [activator, partial curve, poor fit]"
Cc1cc(-c2csc(NC(=O)c3ccc(S(=O)(=O)N(C)C)cc3)n2)c(C)n1-c1ccccc1,,active: 1.26 µM
CC(O)CNCCOc1cccc(Oc2ccccc2)c1 (stereo not drawn),,"inconclusive: 14.1 µM [inhibitor, single point]"
CC(=O)OCC#CCSc1nnc(-c2cccc(Br)c2)o1,inactive: -10.8% [at 46.1 µM],
C/C(=N\O)c1ccc2c(c1)CC(C)O2 (stereo not drawn),inactive: 24.9% [at 46.1 µM],
COC(=O)c1c(N2C(=O)CC(Sc3ccccc3C(=O)O)C2=O)sc(C)c1C (stereo not drawn),inactive: 1.07% [at 46.1 µM],
O=C(NC1CCCC1)c1c[nH]c2ccc(S(=O)(=O)Nc3cccc(C(F)(F)F)c3)cc2c1=O,inactive: 12.1% [at 46.1 µM],
COc1cccc2c1C(=O)c1c(O)c3c(c(O)c1C2=O)CC(O)(C(=O)CO)CC3OC1CC(N(C)C)C(O)C(C)O1 (stereo not drawn),,"inconclusive: 5.62 µM [inhibitor, full curve]"
CN(NS(C)(=O)=O)c1c(C#N)c(C(F)(F)F)nn1C,,"inconclusive: 25.1 µM [activator, single point]"
CC(=O)Nc1ccc2c(c1Br)Cc1ccccc1-2,,"inconclusive: 2.24 µM [activator, partial curve, poor fit]"
CCC(CC)C(=O)OCC(=O)Nc1cccc(S(=O)(=O)N(C)c2ccccc2)c1,,"inconclusive: 12.6 µM [inhibitor, partial curve, poor fit]"
CCCN(CCC)S(=O)(=O)c1cc2c(cc1Br)CCN2C(=O)CC,,"inconclusive: 25.1 µM [inhibitor, single point]"
Cc1ccnc(NC(=O)COc2ccc3oc4c(c3c2)CCCC4)c1,,"inconclusive: 17.8 µM [activator, single point]"
COc1ccc(-c2c(C)[nH]n3c(=O)c(Cc4ccccc4)c(C)nc23)cc1,,"inconclusive: 2.31 µM [inhibitor, partial curve, poor fit]"
O=C(Cn1nnc(-c2ccc(CN3CCOCC3)cc2)n1)N(c1ccccc1)c1ccccc1,,"inconclusive: 2 µM [activator, full curve]"

SMILES,"activity change, negative = inhibition",Potency
CCCCN(Cc1ccccc1)C(=O)C1CCN(Cc2sccc2C)CC1,,"inconclusive: 32.6 µM [inhibitor, partial curve, poor fit]"
CC1CCN(c2c(NCC3CCC(C(=O)NCCc4ccc(Cl)cc4)CC3)c(=O)c2=O)CC1 (stereo not drawn),,"inconclusive: 35.5 µM [inhibitor, single point]"
CCN(CC)C(=O)c1c(Cl)nc(C)c([N+](=O)[O-])c1C,,"inconclusive: 0.631 µM [activator, single point]"
Cc1ccc(C)c(NC(=O)C2CCCN(S(=O)(=O)c3c(C)noc3/C=C/N(C)C)C2)c1 (stereo not drawn),,inactive
CNC(=O)c1csc(-c2ccncc2)n1,inactive: 3.56%,
CSc1ncccc1C(=O)OCC(=O)N1CC2(C)CC1CC(C)(C)C2 (stereo not drawn),,"inconclusive: 28.2 µM [inhibitor, single point]"
CCOc1cc(CNCc2ccncc2)cc(Br)c1OCc1ccccc1F,,"inconclusive: 17.8 µM [inhibitor, partial curve, poor fit]"
O=c1oc(/C=C/c2ccccc2)nc2ccccc12,,"inconclusive: 7.08 µM [inhibitor, partial curve, poor fit]"
CCOC(=O)C1CCCN(S(=O)(=O)c2ccc(S(N)(=O)=O)cc2)C1 (stereo not drawn),,"inconclusive: 4.47 µM [inhibitor, full curve, poor fit]"
O=c1c(Cl)cc(Cl)nn1-c1ccccc1,,active: 16.4 µM
COc1cc(NC(=O)c2cccs2)c(C(=O)OCC(=O)NC(=O)NC(C)(C)C)cc1OC,inactive: 3.76% [at 46.1 µM],
C/C(N)=C(/C#N)C(=O)COC(=O)COc1ccc(Cl)cc1C,,"inconclusive: 0.708 µM [activator, single point]"
COc1ccc(O[C@H]2C=C[C@@H](c3ccccc3)O[C@H]2CO/N=C2/c3cc(OC)ccc3O[C@@H](c3cccc(OC)c3)[C@H]2O)cc1,,"inconclusive: 0.0133 µM [inhibitor, full curve, poor fit]"
O=C(N/N=C/c1ccccc1)c1sccc1OCc1ccc(F)cc1,,"inconclusive: 11.2 µM [inhibitor, single point]"
O=C(O)C1CCCCC1C(=O)Nc1nc(-c2ccc(Cl)s2)cs1 (stereo not drawn),,"inconclusive: 6.31 µM [activator, single point]"
COc1ccc(Cl)cc1-c1n[nH]c(=S)n1C,,"inconclusive: 3.55 µM [inhibitor, single point]"
CCSC(C)CC1C/C(=N/O)c2c(C)noc2C1 (stereo not drawn),,"inconclusive: 3.26 µM [inhibitor, partial curve, poor fit]"
COc1ccc(S(=O)(=O)N2CCCCC2)cc1NS(=O)(=O)c1ccccc1,inactive: -6.69%,
Cn1cc(C2CC(c3ccccc3)=NN2C(=O)c2ccccc2)c2ccccc21 (stereo not drawn),,"inconclusive: 3.55 µM [inhibitor, partial curve, poor fit]"
O=c1c2ccccc2nc(SCc2cc(F)cc3c2OCOC3)n1Cc1ccco1,,"inconclusive: 11.6 µM [inhibitor, partial curve]"
COC(=O)C/C=C/[C@@H](C)[C@@H](/C=N/OCC[C@@H]1C=C[C@H](OC(C)=O)[C@@H](COC(C)=O)O1)NS(=O)(=O)c1ccc(C)cc1,,"inactive and inconclusive: 266 nM [activator, full curve, poor fit]"
Cc1ccccc1Cn1c(O)c(N=NC(=S)Nc2ccccc2F)c2ccccc21,,"inconclusive: 2.31 µM [inhibitor, full curve, poor fit]"

# From PubChem BioAssay AID540276 (National Center for Advancing Translational Sciences (NCATS), 2011)
